Results are given in words; binding and its absence hold for the method and conditions named. For part of these data: Binding can be weak; no strength is given.

The target of test [1] is murine laminin (murine). As to the kind of experiment: direct ELISA on murine laminin.
The target in test [2] is murine laminin (murine). Briefly: competitive ELISA with scFv A4, heat-treated laminin free in solution. A general note: An ELISA detects its analyte on a solid surface through an enzyme-linked reagent.
Test [3] deals with Fetuin. Briefly: NGC microarray, intensity.
Test [4] concerns the target Gal-α-(1→3)-Gal-β-(1→4)-GlcNAc-HSA. Briefly: direct ELISA, purified scFv on coated NGC.
For test [5] the target is unchanged. Briefly: competitive ELISA with scFv A4, trisaccharide NGC free in solution.
Test [6] shares this target. Briefly: NGC microarray, intensity; probe label GGGNHSA.

B1: scFv-A4 (scFv)
scFv: QAALTQPSSVSTNPGGTVKITCSGGNGNYGWYQQKSPGSAPVTVIYSNNKRPSDIPSRFSGSKSGSTATLTITGVQVDDEAVYFCGAYDNTYVGVFGAGTTLTVLGQSSRSSSGGGSSGGGGSAVTLDESGGGLQTPGGGLSLVCKASGFTFSSYSMQWVRQTPGKGLEFVAGIGYSDSYTYFGPAVKGRATISRDNGQNTVRLQLNNLRAEDTATYYCARSADTIYGCTHPWCSADNIDAWGHGTEVIVSSTSGQAGQ
On to B1, for which the binding result in test [1] is given as “binds”; in test [2], “binds”; in test [3] it was “no binding”; in test [4], “binds”; in test [5], “binds”; in test [6] it was “binds”.

Values taken from patent US20160003839A1.
